From patent US8309721B2, “HSP90 inhibitory carbazole derivatives, compositions containing same and use thereof” (Sanofi, priority 2008, dated 2012)

The chains behind the UniProt entries cited, without tags or fusion partners.
UniProt P02829, whole entry: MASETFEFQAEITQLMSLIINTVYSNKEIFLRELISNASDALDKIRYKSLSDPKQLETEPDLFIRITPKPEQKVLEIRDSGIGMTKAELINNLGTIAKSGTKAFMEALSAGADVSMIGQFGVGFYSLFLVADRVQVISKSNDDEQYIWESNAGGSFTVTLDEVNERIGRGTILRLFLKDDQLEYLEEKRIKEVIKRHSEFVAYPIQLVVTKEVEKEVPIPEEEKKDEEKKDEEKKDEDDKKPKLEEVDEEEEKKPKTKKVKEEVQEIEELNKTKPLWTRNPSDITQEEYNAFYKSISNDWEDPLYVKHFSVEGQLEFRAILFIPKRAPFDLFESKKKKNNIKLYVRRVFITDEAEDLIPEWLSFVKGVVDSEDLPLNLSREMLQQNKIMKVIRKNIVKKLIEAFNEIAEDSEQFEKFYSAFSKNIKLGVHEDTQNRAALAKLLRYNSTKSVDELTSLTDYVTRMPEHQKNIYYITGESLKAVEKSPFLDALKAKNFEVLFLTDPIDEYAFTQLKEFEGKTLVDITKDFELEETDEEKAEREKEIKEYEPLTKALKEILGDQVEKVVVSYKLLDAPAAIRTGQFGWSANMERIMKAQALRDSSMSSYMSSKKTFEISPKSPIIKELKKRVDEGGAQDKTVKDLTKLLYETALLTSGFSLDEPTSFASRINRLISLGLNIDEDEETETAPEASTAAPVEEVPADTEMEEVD

Legend:
[1] = target: Hsp82 (Saccharomyces cerevisiae, UniProt P02829); experiment: Hsp82/ATPase test (malachite green or PK/LDH coupled method); format: biochemical; details: read-out: Hsp82 ATPase IC50 μM; 1 μM Hsp82, 250 μM ATP, 37° C.
Method: The biochemical activity of the compounds can in particular be evaluated by means of the “Hsp82/ATPase” test described below: The inorganic phosphate released during the hydrolysis of ATP by the ATPase activity of Hsp82 is quantified by the malachite green method. In the presence of this reagent, formation of the inorganic phosphate-molybdate-malachite green complex, which absorbs at a wavelength of 620 nm, occurs. The products to be evaluated are incubated in a reaction volume of 30 μl, in the presence of 1 μM Hsp82 and of 250 μM of substrate (ATP) in a buffer composed of 50 mM Hepes-NaOH (pH 7.5), 1 mM DTT, 5 mM MgCl2 and 50 mM KCl at 37° C. for 60 min. In parallel, an inorganic phosphate range of between 1 and 40 μM is made up in the same buffer. […] After incubation at ambient temperature for 20 min, the absorbance of the various wells is measured using a microplate reader at 620 nm. The inorganic phosphate concentration of each sample is then calculated from the standard curve. The ATPase activity of Hsp82 is expressed as concentration of inorganic phosphate produced in 60 minutes. The effect of the various products tested is expressed as percentage inhibition of the ATPase activity. […] In this case, the decrease in the NADH concentration, measured through the decrease in absorbance at the wavelength of 340 nm, is proportional to the concentration of ADP produced by Hsp82. […]

[2] = tested on: Her2 receptor expression at the surface of SKBr3 cells; experiment: phenotypic SKBr3/HER2 cell test (Her2 surface expression by flow cytometry); details: read-out: SKBR3 HER2 IC50 μM, 24 h incubation, inhibition of Her2 expression
Method: The cellular activity of the compounds can in particular be evaluated by means of the phenotypic “SKBr3/HER2” cell test described below:
The SKBr3 […] adenocarcinoma cells, overexpressing the Her2 tyrosine kinase receptor, originate from the ATCC (HTB-30) and are cultured in McCoy's 5A medium supplemented with 10% FBS and 1% L-glutamine.
The cells are seeded in 12-well plates at a proportion of 125 000 cells per well in 1 ml of complete medium. The following day, the products are added at varying concentrations. After incubation for 24 h, the cells are trypsinized, washed with PBS and incubated with 100 ng of anti-Her2 antibody coupled to PE (Phycoerythrin) (BD 340552) for 30 minutes at 4° C. in the dark. The fluorescence due to the expression of the Her2 receptor at the surface of the cells is then read using a FACS Calibur flow cytometer (Becton-Dickinson). The percentage inhibition of Her2 expression as a function of the concentrations of product tested is fitted by the nonlinear regression technique (XLfit, equation 205) in order to measure an IC50 for each product.

Compound: CC(CO)CCNc1cc(-n2c3ccccc3c3c(-c4cnc5ccccc5c4)cccc32)ccc1C(N)=O (racemic)
- IC50 [1]: < 1 µM
- IC50 [2]: < 1 µM

The match of structure and compound is tentative.
